Measurements reported in PubChem BioAssay AID504791 (Drosophila RNAi Screening Center, 2011)
In all, the deposit lists about 23,000 reagents; shown is a random part of those with a known target gene and a result. In the full data, 199 (0.86%) are marked active. 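Plate-scaled ratios behind the calls are not deposited; printed light signals are raw; many rows marked increased or decreased are still called inactive.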 A number with no mark means an inactive call. Names joined by + are all predicted targets of the reagent.

Test: 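Genes of the fly required for silencing by miRNA, siRNA or endo-siRNA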 (primary screen)
System: Drosophila S2-derived reporter cells
Reagent: long dsRNA against Drosophila genes, about 150-250 ng dsRNA per well (siRNA assay); about 80-120 ng (miRNA assay)
Timing: about 5 days (siRNA assay); about 4 days (miRNA assay)
Treatment: copper sulfate induction of reporters: 25 µM (siRNA assay); 200 mM stated (miRNA assay), 1-2 days before reading
Detection: 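Dual luciferase assay: Renilla to firefly signal ratio in each well, scaled to the mean ratio of its plate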
Reading the numbers: siRNA reporter hit score: higher = 3 marks a strong hit with raised ratio; -3 a strong hit with lowered ratio
Call rule: 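a well was a first-pass pick when its plate-scaled ratio rose above 1.5 (siRNA assay) or 1.6 (miRNA assay), or dropped below 0.6; a gene counted only if two separate dsRNAs agreed on retest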

| Gene | dsRNA | siRNA reporter hit score | stable siRNA reporter change | miRNA reporter change | stable assay Renilla, run 1 (luminescence) | stable assay firefly, run 1 (luminescence) |
| --- | --- | --- | --- | --- | --- | --- |
| CG4297 | DRSC00651 | – | – | – | 8302 | 5.12e5 |
| CG13690 | DRSC00359 | – | – | – | 8059 | 4.43e5 |
| Mkk4 | DRSC16739 | – | – | – | 5943 | 3.66e5 |
| eEF5 | DRSC04681 | – | – | – | 5776 | 4.74e5 |
| CG18659 | DRSC06784 | – | – | – | 5891 | 3.11e5 |
| Sos | DRSC03439 | – | reporter ratio lowered past the hit cutoff | – | 5768 | 5.52e5 |
| Sos | DRSC23624 | – | – | reporter ratio lowered past the hit cutoff (active) | – | – |
| CG14100 | DRSC10101 | – | – | – | 7370 | 3.59e5 |
| pyd3 | DRSC15459 | – | – | – | 4103 | 3.68e5 |
| pyd3 | DRSC21640 | – | – | – | 8070 | 4.01e5 |
| CG42561 | DRSC05676 | – | – | – | 6143 | 3.25e5 |
| twr | DRSC12491 | – | – | – | 7290 | 5.88e5 |
| Kdm2 | DRSC14286 | – | – | – | 11474 | 6.06e5 |
| Nup50 | DRSC06827 | – | – | – | 10936 | 3.82e5 |
| CG3726 | DRSC18320 | – | – | – | 4547 | 2.98e5 |
| CG3726 | DRSC23143 | – | – | – | 4980 | 3.07e5 |
| CG31098 | DRSC14259 | – | – | – | 7018 | 2.63e5 |
| gus | DRSC04885 | – | – | – | 29739 | 1.20e6 |
| gus | DRSC04886 | – | – | – | 4947 | 3.30e5 |
| gus | DRSC27153 | – | – | reporter ratio raised past the hit cutoff | – | – |
| Slc25A46a | DRSC20125 | – | – | – | 8236 | 5.61e5 |
| CG18675 | DRSC08536 | – | – | – | 5603 | 3.00e5 |
| Twdlbeta | DRSC07310 | – | – | – | 6242 | 2.95e5 |
| Nup133 | DRSC16150 | – | – | – | 12792 | 3.43e5 |
| CG13097 | DRSC02199 | – | – | – | 7099 | 6.27e5 |
| Pfdn1 | DRSC02325 | – | – | – | 8487 | 4.99e5 |
| CG31717 | DRSC01121 | – | – | – | 5442 | 4.31e5 |
| Smyd5 | DRSC15483 | – | – | – | 8318 | 4.61e5 |
| Apc2 | DRSC14115 | – | – | – | 12110 | 5.60e5 |
| CG15390 | DRSC00404 | – | – | – | 7694 | 3.82e5 |
| poe | DRSC03593 | – | – | – | 1.75e5 | 1.80e5 |
| CG4496 | DRSC02753 | – | – | – | 7447 | 3.58e5 |
| CG7606 | DRSC13246 | – | – | – | 3575 | 3.67e5 |
| CG7606 | DRSC16268 | – | – | – | 6534 | 4.58e5 |
| Syt1 | DRSC00156 | – | – | – | 5170 | 4.00e5 |
| Syt1 | DRSC00157 | – | – | – | 3031 | 3.46e5 |
| Syt1 | DRSC00158 | – | – | – | 5087 | 3.17e5 |
| Syt1 | DRSC00840 | – | – | – | 9099 | 2.25e5 |
| Syt1 | DRSC22077 | – | – | – | 9114 | 5.67e5 |
| jtb | DRSC06868 | – | – | – | 7018 | 3.54e5 |
| CycB | DRSC04605 | – | – | – | 39619 | 3.54e5 |
| Gli | DRSC03332 | – | – | – | 6994 | 3.80e5 |
| Mitofilin | DRSC16742 | – | – | – | 9226 | 3.58e5 |
| Sptz | DRSC15758 | – | – | – | 7368 | 4.48e5 |
| Mocs2A + Mocs2B | DRSC13697 | – | – | – | 5559 | 6.15e5 |
| Mocs2A + Mocs2B | DRSC14219 | – | – | – | 7419 | 4.11e5 |
| CG8298 | DRSC07138 | – | – | – | 5036 | 2.87e5 |
| CG31275 | DRSC16919 | – | – | – | 7861 | 4.79e5 |
| CG18467 | DRSC06758 | – | – | – | 7543 | 4.48e5 |
| MED8 | DRSC06426 | -3 | – | – | 5674 | 3.80e5 |
| Alg3 | DRSC04700 | – | – | – | 11062 | 1.35e6 |
| CG32132 (retired record) | DRSC22437 | – | – | – | 3839 | 3.08e5 |
| CG32132 (retired record) | DRSC23128 | – | – | – | 4947 | 2.70e5 |
| Mrp5 | DRSC15597 | – | – | – | 8105 | 3.96e5 |
| Mrp5 | DRSC15598 | – | – | – | 9006 | 4.51e5 |
| CG11409 | DRSC18579 | – | – | – | 8298 | 4.46e5 |
| CG4462 | DRSC15583 | – | – | – | 8890 | 3.07e5 |
| stretch (retired record) | DRSC14347 | – | – | – | 6843 | 2.94e5 |
| stretch (retired record) | DRSC14512 | – | – | – | 7311 | 3.97e5 |
| stretch (retired record) | DRSC14541 | – | – | – | 7074 | 4.11e5 |
| stretch (retired record) | DRSC14542 | – | – | – | 7263 | 4.72e5 |
| stretch (retired record) | DRSC14543 | – | – | – | 7635 | 4.55e5 |
| stretch (retired record) | DRSC23038 | – | – | – | 4575 | 2.91e5 |
| CG31373 | DRSC16052 | – | – | – | 6998 | 5.35e5 |
| CG10209 | DRSC05980 | – | – | – | 8242 | 3.78e5 |
| CG1092 | DRSC12151 | – | – | – | 7350 | 2.85e5 |
| CG42663 | DRSC06158 | – | – | – | 6894 | 3.37e5 |
| CG42663 | DRSC06404 | – | – | – | 4496 | 3.43e5 |
| CG13192 | DRSC06317 | – | – | – | 5142 | 2.46e5 |
| Usp20-33 | DRSC07196 | – | – | – | 7655 | 3.92e5 |
| CG3635 | DRSC03729 | – | – | – | 6875 | 3.83e5 |
| sc | DRSC18830 | – | – | – | 6215 | 4.79e5 |
| CG31419 | DRSC15771 | – | – | – | 7898 | 3.68e5 |
| beat-IIb | DRSC13219 | – | – | – | 3456 | 3.71e5 |
| beat-IIb | DRSC14816 | – | – | – | 7832 | 4.70e5 |
| beat-IIb | DRSC15546 | – | – | – | 8622 | 6.21e5 |
| CG5828 | DRSC02900 | – | – | – | 10209 | 5.59e5 |
| Tsp33B | DRSC02418 | – | – | – | 6954 | 4.38e5 |
| CG17050 (retired record) | DRSC06651 | – | – | – | 5696 | 3.39e5 |
| Ref2 | DRSC02563 | – | – | – | 6791 | 3.54e5 |
| FeCH | DRSC16948 | – | – | – | 7479 | 4.08e5 |
| nht | DRSC01976 | – | – | – | 5031 | 3.93e5 |
| Naa60 | DRSC10301 | – | – | – | 5443 | 2.71e5 |

A run of entries taken from the entries so far:
| Gene | dsRNA | siRNA reporter hit score | stable siRNA reporter change | miRNA reporter change | stable assay Renilla, run 1 (luminescence) | stable assay firefly, run 1 (luminescence) |
| --- | --- | --- | --- | --- | --- | --- |
| CG13097 | DRSC02199 | – | – | – | 7099 | 6.27e5 |
| Pfdn1 | DRSC02325 | – | – | – | 8487 | 4.99e5 |
| CG31717 | DRSC01121 | – | – | – | 5442 | 4.31e5 |
| Smyd5 | DRSC15483 | – | – | – | 8318 | 4.61e5 |
| Apc2 | DRSC14115 | – | – | – | 12110 | 5.60e5 |
| CG15390 | DRSC00404 | – | – | – | 7694 | 3.82e5 |
| poe | DRSC03593 | – | – | – | 1.75e5 | 1.80e5 |
| CG4496 | DRSC02753 | – | – | – | 7447 | 3.58e5 |
| CG7606 | DRSC13246 | – | – | – | 3575 | 3.67e5 |
| CG7606 | DRSC16268 | – | – | – | 6534 | 4.58e5 |
| Syt1 | DRSC00156 | – | – | – | 5170 | 4.00e5 |
